{"source": "patent US20130323813", "about": "“PEPTIDES FOR THE SPECIFIC BINDING OF RNA TARGETS” (THE UNIVERSITY OF WESTERN AUSTRALIA, published 2013)", "key": {"[1]": {"biological_target": "T1, PUM1 PUF domain wild type (NQ) (Homo sapiens) (UniProt Q14671)", "T1 sequence": "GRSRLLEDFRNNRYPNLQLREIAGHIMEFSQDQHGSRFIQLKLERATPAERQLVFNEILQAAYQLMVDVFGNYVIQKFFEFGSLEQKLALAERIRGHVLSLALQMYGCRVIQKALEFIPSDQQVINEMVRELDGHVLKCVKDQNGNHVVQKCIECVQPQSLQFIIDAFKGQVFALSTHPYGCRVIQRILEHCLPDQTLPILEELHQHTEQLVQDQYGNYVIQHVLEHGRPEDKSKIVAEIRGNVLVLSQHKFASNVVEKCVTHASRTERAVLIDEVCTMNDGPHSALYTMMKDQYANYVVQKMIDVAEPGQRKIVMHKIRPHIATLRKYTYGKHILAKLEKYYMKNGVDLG", "assay": "EMSA", "conditions": "striking specificity shift stated; purified recombinant protein; label: 5'-fluorescein; variant of NRE (Fl)"}, "[2]": {"system": "T2, PUFx2 (16-repeat PUF) (Homo sapiens)", "T2 sequence": "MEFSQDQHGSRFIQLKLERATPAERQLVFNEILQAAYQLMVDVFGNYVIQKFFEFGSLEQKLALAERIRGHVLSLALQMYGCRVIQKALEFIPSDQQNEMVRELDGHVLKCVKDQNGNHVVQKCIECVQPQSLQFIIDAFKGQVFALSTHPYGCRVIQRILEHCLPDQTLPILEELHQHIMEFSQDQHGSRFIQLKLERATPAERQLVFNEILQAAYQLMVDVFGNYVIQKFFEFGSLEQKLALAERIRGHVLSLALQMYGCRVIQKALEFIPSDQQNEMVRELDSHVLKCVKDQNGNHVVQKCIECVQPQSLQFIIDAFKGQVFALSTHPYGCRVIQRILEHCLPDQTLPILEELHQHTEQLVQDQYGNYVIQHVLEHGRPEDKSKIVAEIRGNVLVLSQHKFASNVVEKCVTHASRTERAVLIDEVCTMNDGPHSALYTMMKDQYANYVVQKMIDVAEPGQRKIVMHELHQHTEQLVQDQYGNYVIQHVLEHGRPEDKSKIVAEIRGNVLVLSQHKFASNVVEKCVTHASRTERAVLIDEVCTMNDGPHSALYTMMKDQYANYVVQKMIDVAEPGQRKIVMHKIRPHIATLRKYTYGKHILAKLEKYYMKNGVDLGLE", "assay": "one hybrid", "conditions": "yeast three-hybrid, protein in cells, protein details: Gal4 activation domain fusion"}, "[3]": {"biological_target": "T1, PUM1 PUF domain wild type (NQ) (Homo sapiens)", "assay": "one hybrid", "conditions": "yeast three-hybrid, purified recombinant protein"}, "[4]": {"biological_target": "T3, PUM1 PUF GR (repeat 6 Gly12/Arg16) (Homo sapiens) (UniProt Q14671)", "T3 sequence": "T1 sequence with N218G, Q222R", "assay": "one hybrid", "conditions": "yeast three-hybrid; purified recombinant protein; variant of NRE"}, "[5]": {"biological_target": "T4, PUM1 PUF SR (repeat 6 Ser12/Arg16) (Homo sapiens) (UniProt Q14671)", "T4 sequence": "T1 sequence with N218S, Q222R", "assay": "one hybrid", "conditions": "yeast three-hybrid; protein in cells; protein details: Gal4 activation domain fusion; variant of NRE"}, "[6]": {"biological_target": "T5, PUM1 PUF CR (repeat 6 Cys12/Arg16) (Homo sapiens) (UniProt Q14671)", "T5 sequence": "T1 sequence with N218C, Q222R", "assay": "one hybrid", "conditions": "yeast three-hybrid; purified recombinant protein; variant of NRE"}, "[7]": {"biological_target": "T6, PUM1 PUF AR (repeat 6 Ala12/Arg16) (Homo sapiens) (UniProt Q14671)", "T6 sequence": "T1 sequence with N218A, Q222R", "assay": "one hybrid", "conditions": "yeast three-hybrid; protein in cells; protein details: Gal4 activation domain fusion; variant of NRE"}, "[8]": {"biological_target": "T7, PUM1 PUF TR (repeat 6 Thr12/Arg16) (Homo sapiens) (UniProt Q14671)", "T7 sequence": "T1 sequence with N218T, Q222R", "assay": "one hybrid", "conditions": "yeast three-hybrid; protein in cells; protein details: Gal4 activation domain fusion; variant of NRE"}, "[9]": {"biological_target": "T8, PUM1 PUF GR repeat 4 (Homo sapiens) (UniProt Q14671)", "T8 sequence": "T1 sequence with N146G, Q150R", "assay": "one hybrid", "conditions": "yeast three-hybrid; higher affinity than wild-type NRE; protein in cells; protein details: Gal4 activation domain fusion; variant of NRE"}, "[10]": {"biological_target": "T9, PUM1 PUF GR repeat 2 (Homo sapiens) (UniProt Q14671)", "T9 sequence": "T1 sequence with N72G, Q76R", "assay": "one hybrid", "conditions": "yeast three-hybrid; higher affinity than wild-type NRE; protein in cells; protein details: Gal4 activation domain fusion; variant of NRE"}, "[11]": {"biological_target": "T10, PUM1 PUF GR repeat 1 (Homo sapiens) (UniProt Q14671)", "T10 sequence": "T1 sequence with S36G, Q40R", "assay": "one hybrid", "conditions": "yeast three-hybrid; higher affinity than wild-type NRE; protein in cells; protein details: Gal4 activation domain fusion; variant of NRE"}, "[12]": {"biological_target": "T11, PUM1 PUF GR repeat 3 (Homo sapiens) (UniProt Q14671)", "T11 sequence": "T1 sequence with C108G, Q112R", "assay": "one hybrid", "conditions": "yeast three-hybrid; higher affinity than wild-type NRE; protein in cells; protein details: Gal4 activation domain fusion; variant of NRE"}, "[13]": {"conditions": "significantly decreased, variant of NREx2"}}, "note": "Positions count from the first letter of the chain named. For some assays here: A negative result means that nothing was seen under these conditions. Protein sequences can lack the tags named with them. For some assays here: Where cells or extracts were used, other partners may take part. For some assays here: Weaker means in comparison with the reference protein, sequence or condition of that experiment. For some assays here: Construct, isoform or probe ends are uncertain for at least one entry.", "data": [{"sequence": "AUUGCAUAUA [NREU3C (Fl)]", "values": [{"measurement": "binding result", "setting": "[1]", "value": "binds more weakly"}]}, {"sequence": "CCGGCUAGCAAUCCCUGUAUAUAAUAUAUUAAUUUAAUAAAGCAUG [NREx2mut1]", "values": [{"measurement": "binding result", "setting": "[2]; [13]", "value": "binds more weakly"}, {"measurement": "binding result", "setting": "[3]; binds as well as NREx2, variant of NREx2", "value": "binds"}]}, {"sequence": "CCGGCUAGCAAUUGAAUAUAUUAAUUUAAUAAAGCAUG [NREU3A]", "values": [{"measurement": "binding result", "setting": "[4]", "value": "no binding"}, {"measurement": "binding result", "setting": "[5]", "value": "no binding"}, {"measurement": "binding result", "setting": "[6]", "value": "no binding"}, {"measurement": "binding result", "setting": "[7]", "value": "no binding"}, {"measurement": "binding result", "setting": "[8]", "value": "no binding"}]}, {"sequence": "CCGGCUAGCAAUUGCAUAUAUUAAUUUAAUAAAGCAUG [NREU3C]", "values": [{"measurement": "binding result", "setting": "[4]", "value": "binds"}, {"measurement": "binding result", "setting": "[5]", "value": "binds"}, {"measurement": "binding result", "setting": "[6]", "value": "binds"}, {"measurement": "binding result", "setting": "[7]", "value": "binds"}, {"measurement": "binding result", "setting": "[8]", "value": "binds"}]}, {"sequence": "CCGGCUAGCAAUUGGAUAUAUUAAUUUAAUAAAGCAUG [NREU3G]", "values": [{"measurement": "binding result", "setting": "[4]", "value": "no binding"}, {"measurement": "binding result", "setting": "[5]", "value": "no binding"}, {"measurement": "binding result", "setting": "[6]", "value": "no binding"}, {"measurement": "binding result", "setting": "[7]", "value": "no binding"}, {"measurement": "binding result", "setting": "[8]", "value": "no binding"}]}, {"sequence": "CCGGCUAGCAAUUGUACAUAUUAAUUUAAUAAAGCAUG [NREU5C]", "values": [{"measurement": "binding result", "setting": "[9]", "value": "binds"}]}, {"sequence": "CCGGCUAGCAAUUGUAUACAUUAAUUUAAUAAAGCAUG [NREU7C]", "values": [{"measurement": "binding result", "setting": "[10]", "value": "binds"}]}, {"sequence": "CCGGCUAGCAAUUGUAUAUAUUAAUAUAAUAAAGCAUG [NREstem5]", "values": [{"measurement": "binding result", "setting": "[3]; variant of NRE", "value": "binds"}]}, {"sequence": "CCGGCUAGCAAUUGUAUAUAUUAAUAUAUAAAAGCAUG [NREstem7]", "values": [{"measurement": "binding result", "setting": "[3]; variant of NRE", "value": "binds"}]}, {"sequence": "CCGGCUAGCAAUUGUAUAUAUUAAUAUAUACAAGCAUG [NREstem8]", "values": [{"measurement": "binding result", "setting": "[3]; bound with less efficiency, variant of NRE", "value": "binds more weakly"}]}, {"sequence": "CCGGCUAGCAAUUGUAUAUAUUAAUAUAUUAAAGCAUG [NREstem6]", "values": [{"measurement": "binding result", "setting": "[3]; variant of NRE", "value": "binds"}]}, {"sequence": "CCGGCUAGCAAUUGUAUAUCUUAAUUUAAUAAAGCAUG [NREA8C]", "values": [{"measurement": "binding result", "setting": "[11]", "value": "binds"}]}, {"sequence": "CCGGCUAGCAAUUGUAUCUAUUAAUUUAAUAAAGCAUG [NREA6C]", "values": [{"measurement": "binding result", "setting": "[12]", "value": "binds"}]}, {"sequence": "CCGGCUAGCAAUUGUCCCCUAUAAUAUAUUAAUUUAAUAAAGCAUG [NREx2mut2]", "values": [{"measurement": "binding result", "setting": "[2]; [13]", "value": "binds more weakly"}]}, {"sequence": "CCGGCUAGCAAUUGUUGUAUAUAAUAUAUUAAUUUAAUAAAGCAUG [NREx2]", "values": [{"measurement": "binding result", "setting": "[2]; more efficient than 8-repeat PUF with its cognate RNA", "value": "binds"}, {"measurement": "binding result", "setting": "[3]", "value": "binds"}]}]}
